Measured values: publication PMC10893521, “Influence of Desialylation on the Drug Binding Affinity of Human Alpha-1-Acid Glycoprotein Assessed by Microscale Thermophoresis” (Pharmaceutics, 2024)

Experiments:
[1] = molecular target: T1, Native human AAG (alpha-1-acid glycoprotein, orosomucoid); assay: microscale thermophoresis, RED-NHS labelled protein, […] fit; assay type: binding; conditions: 25 mM sodium phosphate pH 7.4, 0.05% Tween 20, 5% DMSO, room temperature, 20 nM AAG
T1 construct: gene ORM1; native human plasma protein, 183 residues, two cystine bridges, five N-glycans, fully sialylated (IS 270)

Desialylated human AAG = molecular target: T2, Desialylated human AAG; assay: as above; assay type: binding; conditions: 25 mM sodium phosphate pH 7.4, 0.05% Tween 20, 5% DMSO, room temperature, 20 nM AAG
T2 construct: gene ORM1

Kd [1]: 487 µM | Kd (Desialylated human AAG): 898 µM
Structure (SMILES): CCN(CC)CC(=O)Nc1c(C)cccc1C [lidocaine]
